Drawing on PubChem BioAssay AID1487 (National Center for Advancing Translational Sciences (NCATS), 2009), this text covers AC50 for 36 compounds.

SMILES strings stand for the structures. The list shows a part of the results. Further columns of the screen follow, without active or inactive calls. The list favours compounds with an active or inconclusive main result. Potencies come from curve fits of mixed quality, noted in brackets.

The nature of the test: qHTS Assay for Modulators of Lamin A Splicing. The settings on record: HeLa LMNA splicing GFP/RFP minigene ratio, 48 h. An outline of the steps:
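S3 HeLa cells stably expressing lamin A-EGFP splicing minigene plus DsRed2, 600 cells/well, 48 h compound exposure at 37C. Laser-scanning cytometry; analysed as GFP (500-530 nm)/RFP (575-640 nm) total intensity ratio; 0.5% DMSO vehicle.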

Setting [1] is: measured here: RFP viability control channel.
Setting [2] is: measured here: GFP splicing reporter channel.

Take `CC(=O)Nc1ccc(S(=O)(=O)Oc2ccc3c(c2)C(C)=CC(C)(C)N3)cc1`: under setting [1], the AC50 (in general, the midpoint of the concentration-response curve, whichever way the signal moves) was 2.51 µM [rising, full curve].

With `NS(=O)(=O)c1ccc(CCNC(=O)c2ccccc2[N+](=O)[O-])cc1`, the AC50 under setting [1] is 0.141 µM [rising, full curve].

Consider `Nc1ccc(N2C(=O)c3ccccc3C2=O)c(Cl)c1`, for which the AC50 runs as follows: under setting [2], 11.2 µM [rising, partial curve]; under setting [1], 0.00501 µM [falling, full curve, poor fit].

On to `COc1ccc(N2CCN(CCCNC(=O)c3cc4sccc4n3C)CC2)cc1`, for which the AC50 under setting [1] is 0.631 µM [rising, partial curve].

In the case of `O=C(CCN1CCC(c2cccs2)=N1)c1cccs1`, under setting [1], the AC50 is 17.8 µM [falling, single point].

Consider `COc1ccccc1CNc1ncncc1-c1ccc2c(c1)OCO2`, for which the AC50 is 17.8 µM [falling, partial curve] under setting [2] and 17.8 µM [falling, single point] under setting [1].

Consider `O=C(Nc1ccc2oc(-c3ccccc3)nc2c1)c1ccco1`, for which the AC50 under setting [2] was 20 µM [rising, single point].

For `CC1C/C(=C/c2cccs2)C(=O)/C(=C/c2cccs2)C1` (centres undefined), the AC50 under setting [2] is 35.5 µM [rising, single point] and the AC50 under setting [1] was 35.5 µM [rising, single point].

Take `Cc1ccc(Cl)cc1NC(=O)c1ccc(NC(=O)CCC(=O)O)cc1`: the AC50 under setting [1] was 1.12 µM [rising, partial curve, poor fit].

Consider `c1ccc2c(c1)[nH]c1c(NCC3CCCO3)ncnc12` (centres undefined), for which the AC50 under setting [1] was 11.2 µM [rising, partial curve].

Take `CCn1c(=N)n(CC(=O)C23CC4CC(CC(C4)C2)C3)c2ccccc21`: the half-maximal activity concentration (AC50) under setting [1] is 31.6 µM [rising, single point].

Take `COc1ccc(CN=C2NC(=O)CC(C(=O)Nc3cc(C)cc(C)c3)S2)cc1` (centres undefined): the AC50 was 14.1 µM [rising, single point] under setting [2] and 17.8 µM [rising, partial curve, poor fit] under setting [1].

On to `CSc1c(SCc2ccccc2)cnn(Cc2ccccc2)c1=O`, for which the AC50 by setting is: under setting [2], 14.1 µM [rising, partial curve, poor fit]; under setting [1], 15.8 µM [rising, single point].

Turning to `Cc1cc(C)c[n+](C2=C([O-])c3ccccc3C(=O)/C2=N\S(=O)(=O)c2cccs2)c1`, the AC50 under setting [1] is 5.62 µM [rising, single point].

Regarding `c1ccc(Nc2nc(N3CCCC3)nc(N3CCCC3)n2)cc1`, under setting [1], the AC50 is 28.2 µM [rising, single point].

For the compound `Cc1ccc(S(=O)(=O)/N=C/N(C)C)cc1`, the AC50 under setting [1] is 2.24 µM [rising, partial curve, poor fit].

As to `Cc1ccc(/C=C/C(=O)N2CCC(Cc3ccccc3)CC2)cc1`, the AC50 is 35.5 µM [rising, single point] under setting [2] and 31.6 µM [rising, partial curve] under setting [1].

`CCOC(=O)c1c(CN(C)C)n(-c2ccccc2)c2cc(Br)c(OC)cc12`: the AC50 is, setting by setting: under setting [2], 15.8 µM [rising, partial curve, poor fit]; under setting [1], 20 µM [rising, partial curve].

As for `c1ccc(Nc2nnc(SCc3cccc4ccccc34)s2)cc1`, the AC50 under setting [1] is 31.6 µM [rising, single point].

Regarding `Cc1ccc(CN2CCN(/N=C/c3cccnc3)CC2)c(C)c1`, under setting [1], the AC50 is 35.5 µM [rising, single point].

With `CC1(C)OC(C)(C)/C(=C/Nc2ccccc2)C1=O`, the AC50 was 25.1 µM [rising, single point] under setting [2] and 31.6 µM [rising, single point] under setting [1].

With `COc1ccccc1CC(=O)Nc1ccc(Cl)cc1C(=O)O`, the AC50 under setting [2] was 35.5 µM [falling, single point].

Turning to `O=c1c2cc(NC(=S)NCCCN3CCC(Cc4ccccc4)CC3)ccc2nc2n1CCCCC2`, the AC50 under setting [2] was 22.4 µM [falling, partial curve, poor fit].

With `Cc1oc2c(c1C(=O)Nc1cccc3ccccc13)CCCC2`, under setting [1], the AC50 is 8.91 µM [rising, partial curve, poor fit].

Take `CCOc1ccc(OCC)c(NC(=O)CN2CCC(NC(=O)c3cccc(F)c3)CC2)c1`: the AC50 by setting is: under setting [2], 31.6 µM [rising, single point]; under setting [1], 25.1 µM [rising, single point].

For `CC(=O)Nc1ccc(S(=O)(=O)NC(C(=O)O)C2=CCC=CC2)cc1` (centres undefined), the AC50 was 4.47 µM [falling, single point] under setting [2] and 3.16 µM [falling, single point] under setting [1].

`COc1ccc(OCC(=O)OCc2cc(=O)n3nc(C4CC4)sc3n2)cc1`: the AC50 under setting [1] is 0.282 µM [falling, full curve, poor fit].

For the compound `Cc1cccc(C)c1NC(=O)CN(C)CC(=O)Nc1cc(Cl)ccc1C#N`, the AC50 reads like this: under setting [2], 25.1 µM [rising, single point]; under setting [1], 28.2 µM [rising, single point].

On to `O=C(Nc1nc2n(n1)C(c1ccc(Cl)cc1)CC(c1ccc(Cl)cc1)N2)c1ccco1` (centres undefined), for which, under setting [1], the AC50 was 35.5 µM [rising, single point].

As for `CC(=O)Nc1ccc(-c2csc(NC(=O)C3CCN(S(=O)(=O)c4cccs4)CC3)n2)cc1`, the AC50 under setting [2] is 0.00501 µM [falling, full curve, poor fit].

As for `CCC(C)NC(=O)c1ccc2nc(CCc3ccccc3)oc2c1` (centres undefined), under setting [1], the AC50 was 0.00316 µM [falling, full curve, poor fit].

With `CC(C)COc1ccc(C(=O)Nc2ccc(SC(F)F)cc2)cc1`, the AC50 under setting [1] is 5.62 µM [rising, partial curve].

Consider `COc1ccc(C2=Nn3c(nnc3C3CCCCC3)SC2)cc1OC`, for which the AC50 under setting [1] is 31.6 µM [rising, single point].

On to `CCOc1ccc(S(=O)(=O)c2c(C(=O)c3ccc(C)cc3)cnc3cc4c(cc23)OCCO4)cc1`, for which, under setting [1], the AC50 is 3.98 µM [rising, single point].

On to `Cc1ccc(SCC(=O)NC(=O)NCc2ccccc2)c(C)c1`, for which the AC50 is 31.6 µM [rising, single point] under setting [2] and 35.5 µM [rising, single point] under setting [1].

For `CCCCc1ccc(S(=O)(=O)N2CCN(C(=O)c3ccco3)CC2)cc1`, the AC50 under setting [2] was 12.6 µM [rising, single point] and the AC50 under setting [1] was 20 µM [rising, partial curve].
